{"source": "PubChem BioAssay AID540276", "about": "(National Center for Advancing Translational Sciences (NCATS), 2011)", "note": "About 5,400 (1.8%) of roughly 300,000 compounds were called active. Inconclusive results, whose numbers are uncertain, are shown with a selection of clear calls. Calls follow the shape of the full dose curve; tested in HEK293 cells. Potencies beside an inconclusive call are fits to weak or partial responses and may not hold up. % is scaled to controls: 0 for no effect and ±100 for the full control effect; potency is read from the fitted curve at half-maximal effect."}
{"test": "qHTS for inhibitors of binding or entry into cells for Marburg Virus", "conditions": "Marburg virus pseudotyped entry inhibition, cell reporter; activity change, negative = inhibition: at 37.8 µM (top of the series) unless noted"}
{"smiles": "Cc1ccc2[nH]cc(C(c3ccccc3)c3ccc(C)s3)c2c1", "note": "(stereo not drawn)", "Potency": "inconclusive: 11.2 µM [inhibitor, partial curve]"}
{"smiles": "COc1ccc(N2CC(C(=O)Nc3ccc4c(c3)OCCO4)CC2=O)cc1", "note": "(stereo not drawn)", "activity change, negative = inhibition": "inactive: 0.562%"}
{"smiles": "C=CCOC(=O)C1=C(C)NC(=O)NC1c1cn(-c2ccccc2)nc1-c1cccs1", "note": "(stereo not drawn)", "Potency": "inconclusive: 14.6 µM [inhibitor, partial curve, poor fit]"}
{"smiles": "Cc1ccc2nc(-c3ccc(NC(=O)C(C)N4C(=O)c5ccccc5C4=O)cc3)sc2c1", "note": "(stereo not drawn)", "Potency": "inconclusive: 4.61 µM [activator, partial curve, poor fit]"}
{"smiles": "CC1=C(C(=O)Nc2ccccc2)C(c2ccco2)C(C#N)=C(SCC(=O)Nc2cccc(C)c2C)N1", "note": "(stereo not drawn)", "Potency": "inconclusive: 2.06 µM [inhibitor, full curve]"}
{"smiles": "CCCN1CCC(=NNc2ccc(C(=O)O)cc2)CC1", "Potency": "inconclusive: 1.26 µM [activator, single point]"}
{"smiles": "COc1cc(C2C(C#N)=C(N)OC3=C2C(=O)CC(C)(C)C3)ccc1OCCN1CCOCC1", "note": "(stereo not drawn)", "activity change, negative = inhibition": "inactive: 11.8% [at 46.1 µM]"}
{"smiles": "CCN1C(=O)C2C(c3ccccc3F)NC(Cc3ccc(O)cc3)(C(=O)OC)C2C1=O", "note": "(stereo not drawn)", "activity change, negative = inhibition": "inactive: 3.35%"}
{"smiles": "COc1ccc(-n2nc(C(=O)NCC(=O)N3CCN(Cc4ccccc4)CC3)c3ccccc3c2=O)cc1", "Potency": "inconclusive: 11.2 µM [inhibitor, partial curve]"}
{"smiles": "CS(=O)(=O)c1ccc2nc(NC(=O)CCN3C(=O)c4ccccc4C3=O)sc2c1", "Potency": "inconclusive: 0.562 µM [inhibitor, full curve, poor fit]"}
{"smiles": "Cc1ccccc1OCC(=O)Nc1nnc(-c2ccco2)s1", "activity change, negative = inhibition": "inactive: -24.9%"}
{"smiles": "O=C(N/N=C/c1cccnc1)c1cccc(NC(=O)c2ccc(Cl)cc2)c1", "Potency": "inconclusive: 35.5 µM [inhibitor, single point]"}
{"smiles": "CC(=O)OC[C@H]1O[C@H](CC=NO[C@@H](C)c2cn([C@H](CO)Cc3ccccc3)nn2)C=C[C@@H]1OC(C)=O", "Potency": "inconclusive: 6.68 µM [activator, single point]"}
{"smiles": "O=C(CNC(=O)c1ccc(Br)o1)NCC(=O)OCc1ccccc1", "activity change, negative = inhibition": "inactive: 9.76%"}
{"smiles": "Cc1cccc(/C=N/NC(=O)c2ccc(NC(=O)c3ccc(Cl)cc3)cc2)n1", "Potency": "inconclusive: 20 µM [activator, single point]"}
{"smiles": "Cc1[nH]c2ccccc2c(=O)c1CN(C)Cc1ccccc1", "activity change, negative = inhibition": "inactive: 29.6% [at 46.1 µM]"}
{"smiles": "Cc1cc(C)cc(NC(=O)CSc2nc3nc(C)cc(C)n3n2)c1", "Potency": "inconclusive: 0.112 µM [inhibitor, full curve, poor fit]"}
{"smiles": "Cc1ccc(C(=O)Nc2ccccc2C(=O)NC2CCCCC2)cc1S(=O)(=O)N1CCOCC1", "Potency": "inconclusive: 3.66 µM [inhibitor, full curve, poor fit]"}
{"smiles": "Cc1nc(N2CCN(C)CC2)c2c(C)c(C(=O)Nc3ccc(C)c(F)c3)sc2n1", "Potency": "inconclusive: 16.4 µM [inhibitor, partial curve, poor fit]"}
{"smiles": "CN(C)c1ccc(NC(=S)NC23CC4CC(CC(C4)C2)C3)cc1", "Potency": "inconclusive: 6.31 µM [activator, single point]"}
{"smiles": "CC(=O)OCC1=C(C(=O)O)N2C(=O)[C@@H](NC(=O)Cc3cccs3)[C@H]2SC1", "Potency": "inconclusive: 0.005 µM [inhibitor, full curve]"}
{"smiles": "O=C1Nc2ccccc2N(O)N1c1cc(-c2ccccc2Cl)no1", "Potency": "inconclusive: 9.2 µM [inhibitor, partial curve, poor fit]"}
{"smiles": "COc1ccccc1C(CNC(=O)c1cccc(S(=O)(=O)Nc2ccc(F)cc2)c1)N1CCCC1", "note": "(stereo not drawn)", "Potency": "inconclusive: 17.8 µM [inhibitor, single point]"}
{"smiles": "CC1=C(C(=O)NC(C)CCc2ccccc2)C2(CCC(C)CC2)OC1=O", "note": "(stereo not drawn)", "Potency": "inconclusive: 22.4 µM [inhibitor, single point]"}
{"smiles": "CC(C)CNC(=O)Nc1ccc(F)c(Cl)c1", "activity change, negative = inhibition": "inactive: -11.9% [at 46.1 µM]"}
{"smiles": "O=C1N/C(=N/Nc2ccccc2)S/C1=C\\c1ccccc1", "Potency": "inconclusive: 20 µM [inhibitor, single point]"}
{"smiles": "COc1ccc(C2CC(c3ccccc3)=NN2C(=O)COC(=O)c2cccc(S(=O)(=O)N3CCOCC3)c2)cc1", "note": "(stereo not drawn)", "Potency": "inconclusive: 28.2 µM [inhibitor, partial curve, poor fit]"}
{"smiles": "Cc1cc(-n2c(C)cc(C(=O)CCl)c2C)no1", "Potency": "active: 2.82 µM"}
{"smiles": "CCN1C(=O)c2cccc3c(S(=O)(=O)Nc4ccccc4)ccc1c23", "Potency": "inconclusive: 32.6 µM [inhibitor, partial curve, poor fit]"}
{"smiles": "Cc1cc(-c2ccccc2)nc(-c2ccccc2)c1C", "activity change, negative = inhibition": "inactive: -1.29% [at 46.1 µM]"}
{"smiles": "CSc1ccccc1NC(=S)Nc1cc(C)cc(C)c1", "Potency": "inconclusive: 35.5 µM [inhibitor, single point]"}
{"smiles": "COc1ccc(S(=O)(=O)NC2CC(=O)N(c3ccc4c(c3)OCCO4)C2)cc1", "note": "(stereo not drawn)", "activity change, negative = inhibition": "inactive: 5.92% [at 46.1 µM]"}
{"smiles": "Cc1ccc(C(=O)c2cc3ccccc3o2)cc1C", "activity change, negative = inhibition": "inactive: -7.7%"}
{"smiles": "COc1ccc2c(c1)O[C@@H](c1ccc3c(c1)OCO3)[C@H](O)C2=O", "Potency": "inconclusive: 0.335 µM [activator, full curve]"}
{"smiles": "COc1cc(S(=O)(=O)N2CCOCC2)ccc1NC(=O)COC(=O)COc1ccccc1", "activity change, negative = inhibition": "inactive: 0% [at 46.1 µM]"}
{"smiles": "Cc1ccc(Cn2ccsc2=NC(=O)COC(=O)c2ccc(NC(=O)CC#N)cc2)cc1", "Potency": "inconclusive: 7.94 µM [inhibitor, partial curve, poor fit]"}
{"smiles": "O=C(CCC1CCCC1)Nc1ccc(Br)cn1", "activity change, negative = inhibition": "inactive: -1.21%"}
{"smiles": "C/C(=C1/SC(N2CCCC2)=NC1=O)c1ccc(Br)cc1", "Potency": "active: 4.47 µM"}
{"smiles": "CCC(=O)Nc1cc(-c2cc3ccccc3oc2=O)ccc1OC", "activity change, negative = inhibition": "inactive: -23%"}
{"smiles": "Cc1ccc(-c2cn(-c3ccccc3)c(SCC(=O)NC3CCS(=O)(=O)C3)n2)cc1C", "note": "(stereo not drawn)", "Potency": "inconclusive: 0.708 µM [activator, full curve, poor fit]"}
{"smiles": "CCOC(=O)C1(CCOc2ccccc2)CCN(Cc2cccn2-c2cccnc2)CC1", "Potency": "inconclusive: 15.8 µM [inhibitor, single point]"}
{"smiles": "O=C1NCCc2c1[nH]c1c(Cl)ccc(Cl)c21", "activity change, negative = inhibition": "inactive: 8.98%"}
{"smiles": "COc1ccc(C(=O)O)cc1S(=O)(=O)Nc1cccc(C)c1", "Potency": "inconclusive: 20 µM [activator, single point]"}
{"smiles": "CN1CCN(c2ccc(NC(=O)c3cc([N+](=O)[O-])ccc3N3CCOCC3)cc2)CC1", "Potency": "inconclusive: 8.91 µM [inhibitor, partial curve, poor fit]"}
{"smiles": "COc1ccc(NS(=O)(=O)c2ccc(N3CCCC3)c(NC(=S)Nc3cccc(C)c3C)c2)cc1", "Potency": "inconclusive: 5.01 µM [inhibitor, full curve, poor fit]"}
{"smiles": "CCOC(=O)C1(Cc2cccc(Cl)c2)CCCN(C(=O)C2CC2)C1", "note": "(stereo not drawn)", "activity change, negative = inhibition": "inactive: -33.3% [at 46.1 µM]"}
{"smiles": "Cc1cccc(NC(=S)Nc2ccc(N3CCOCC3)cc2)c1C", "Potency": "inconclusive: 35.5 µM [activator, single point]"}
{"smiles": "O=C(O)CC/C(=C\\c1ccc2c(c1)OCO2)c1nc2ccccc2s1", "activity change, negative = inhibition": "inactive: 1.62% [at 46.1 µM]"}
{"smiles": "Cc1cccc(C2Nc3ccccc3C(=O)N2CCc2ccccc2)n1", "note": "(stereo not drawn)", "activity change, negative = inhibition": "inactive: -18.8%"}
{"smiles": "O=C(N/N=C/c1coc2ccccc2c1=O)c1cn(-c2ccccc2)nc1-c1ccccc1", "activity change, negative = inhibition": "inactive: 16.7%"}
{"smiles": "OCC1(CCc2ccccc2)CCCN(CCCc2ccccc2)C1", "note": "(stereo not drawn)", "Potency": "inconclusive: 11.2 µM [inhibitor, partial curve, poor fit]"}
{"smiles": "COc1cccc(-c2noc(-c3cccs3)n2)c1", "Potency": "inconclusive: 20.6 µM [activator, single point]"}
{"smiles": "NC(=O)c1ccc(NC(=O)C2CCN(S(=O)(=O)Cc3ccccc3)CC2)cc1", "activity change, negative = inhibition": "inactive: -1.63% [at 46.1 µM]"}
{"smiles": "Clc1ccc2nc3c4ccccc4cnn3c2c1", "activity change, negative = inhibition": "inactive: 4.28% [at 46.1 µM]"}
{"smiles": "CN1CCN(S(=O)(=O)c2cccc(C(=O)Nc3cc(Cl)ccc3N3CCOCC3)c2)CC1", "activity change, negative = inhibition": "inactive: 1.48%"}
{"smiles": "CCn1c2ccc(Cl)cc2c2nc3ccccc3nc21", "Potency": "inconclusive: 0.82 µM [activator, full curve, poor fit]"}
{"smiles": "CN(C)/C=C1/N=C(c2ccccc2)OC1=O", "Potency": "inconclusive: 0.316 µM [activator, partial curve, poor fit]"}
{"smiles": "CCCn1c(=N)n(CC(O)COc2ccccc2OC)c2ccccc21", "note": "(stereo not drawn)", "Potency": "inconclusive: 11.2 µM [inhibitor, partial curve]"}
{"smiles": "CCN1CCN(c2nc3ccccc3nc2C(C#N)C(=O)OC2CCCCC2)CC1", "note": "(stereo not drawn)", "Potency": "inconclusive: 31.6 µM [inhibitor, single point]"}
{"smiles": "Cc1cccc(N(Cc2cc3ccccc3[nH]c2=O)C(=O)c2cccc(Cl)c2)c1", "Potency": "inconclusive: 6.31 µM [inhibitor, partial curve]"}
{"smiles": "O=c1cc(CCl)nc2sc3ccccc3n12", "Potency": "inconclusive: 5.62 µM [inhibitor, partial curve]"}
{"smiles": "NC(=O)c1nc(-c2ccco2)nc2c1[nH]c(=O)n2-c1ccc(Cl)c(Cl)c1", "Potency": "inconclusive: 20.6 µM [inhibitor, single point]"}
{"smiles": "O=C(CN1CCN(Cc2ccc(Cl)cc2)CC1)N/N=C/c1cccc(F)c1", "Potency": "inconclusive: 11.2 µM [inhibitor, single point]"}
{"smiles": "COc1ccc(Oc2c(Cl)cnn(-c3ccc(F)cc3)c2=O)cc1", "Potency": "inconclusive: 25.1 µM [inhibitor, single point]"}
{"smiles": "COc1ccccc1Nc1nnc(Cc2ccccc2)c(=O)[nH]1", "activity change, negative = inhibition": "inactive: 21.8% [at 46.1 µM]"}
{"smiles": "COc1ccc(C)cc1S(=O)(=O)N1CCN(C(=O)c2ncoc2-c2ccccc2F)CC1", "Potency": "inconclusive: 35.5 µM [activator, single point]"}
{"smiles": "CCN(CCCl)c1cc(CN(C)C)cc(NC(=O)c2ccc(C(=O)Nc3cc(CN(C)C)cc(N(CC)CCCl)c3)cc2)c1", "Potency": "inconclusive: 0.708 µM [inhibitor, full curve, poor fit]"}
{"smiles": "COc1ccc(-c2cc(C(=O)NC(C(=O)O)C(C)C)c(C)o2)cc1OC", "note": "(stereo not drawn)", "Potency": "inconclusive: 16.4 µM [activator, partial curve, poor fit]"}
